Experimental data from PubChem BioAssay AID1347076 (National Center for Advancing Translational Sciences (NCATS), 2019).
Screen size: about 400,000 compounds; about 13,000 (3.2%) were called active. The inconclusive results got no clear call from the source; some entries with a clear call stand among them for comparison. The call rests on the fitted dose curve; in most records, active means well fitted cell-killing curve with a large enough effect; inconclusive means small, poorly fitted or top-dose-only effect, or effect the other way; inactive means flat fitted curve, though single readings scatter. A potency beside an inconclusive call is a rough fit, not a confirmed value.

test: qHTS assay for MDR1-selective chemotherapeutics: Primary screen using the drug-selected MDR subline cells KB-V1; conditions: KB-V1 MDR cells viability, CellTiter-Glo, 72 h; activity change, negative = cytotoxicity: at 46.1 µM (top of the series); further: nearly all actives have a fitted effect of over 60% in size
Procedure, shortened: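 Potencies derive from concentration-effect curves fitted to normalized luminescence (CellTiter-Glo) of KB-V1 cells treated for 72 h at 37 degrees C in phenol-red-free DMEM containing 10% FBS.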
On the % scale 0 is the no-effect control and ±100 the full control effect; potency means the concentration at half of the fitted maximal effect.

SMILES	Potency	activity change, negative = cytotoxicity
CCN1CCN(c2nc(Nc3cccc(C)c3)nc(N)c2[N+](=O)[O-])CC1	active: 4.11 µM	
COc1cccc(NC(=O)C(NCCC(C)C)c2ccccc2)c1 (stereo unspecified)		inactive: 11.3%
Cc1c(C(=O)Nc2ccc(S(=O)(=O)N(C)C3CCN(C)CC3)cc2)oc2ccccc12	active: 20.6 µM	
CN(C)c1ccc(/C=[N+]2\C(=O)CC(=O)NC2=O)cc1		inactive: 6.04%
CCOC(=O)c1cc(NC(=O)Cc2ccc(S(=O)(=O)N3CCOCC3)s2)cc(C(=O)OCC)c1	inconclusive: 14.6 µM [cytotoxic, partial curve]	
CC(=O)NCCc1c(C)n(Cc2ccccc2)c2ccccc12		inactive: -2.75%
COc1ccc(-c2c(-c3ccc(O)cc3O)n[nH]c2C(F)(F)F)cc1		inactive: 18%
COc1ccc(OC)c(NC(=O)Cn2cnc3onc(-c4ccc(Cl)cc4)c3c2=O)c1		inactive: -27.8%
CS(=O)(=O)N(CC(=O)N1CCCCCC1)c1cccc(Br)c1	active: 20.6 µM	
CCCCNC(=O)c1cn(C)c2ccc(S(=O)(=O)N3CCCC3)cc2c1=O	inactive	
COc1ccccc1NC(=O)CNc1ccc(F)c(Cl)c1	inconclusive: 18.4 µM [cytotoxic, single point]	
Cc1ccc(C(=O)NCC(c2ccco2)S(=O)(=O)c2ccc(Cl)cc2)cc1C (stereo unspecified)		inactive: 0.53%
O=C(CSc1nc(=O)n2ccccc2n1)NC1CCCCC1		inactive: -7.23%
Cc1c(Cl)c([N+](=O)[O-])nn1CCCC(=O)Nc1c(Cl)cccc1Cl	active: 7.31 µM	
COc1ccc(OCC2c3cc(OC)c(OC)cc3CCN2C(=O)c2c(F)cccc2F)cc1 (stereo unspecified)		inconclusive: -0.725%
Cc1ccc(NC(=O)CSCc2cc(=O)n3ccsc3n2)c(C)c1		inconclusive: -35.1%
O=C(c1ccc(Cl)c(Cl)c1)c1cc(-c2ccccn2)c(N2CCOCC2)s1	active: 4.11 µM	
Cc1ccc(S(=O)(=O)N2CCC(NC(=O)c3cccc(C)c3)CC2)cc1		inactive: -2.07%
C=CCN1C(=O)/C(=N/n2cnnc2)c2ccccc21		inactive: 0%
Cc1ccc(NC(=O)c2ccc(Nc3c([N+](=O)[O-])cc([N+](=O)[O-])cc3[N+](=O)[O-])cc2)cc1	inconclusive: 20.6 µM [cytotoxic, single point]	
Cc1cccc(NC(=O)CNC(=O)c2cccc(S(=O)(=O)NCc3cccs3)c2)c1C		inactive: -17.6%
CC(OC(=O)/C=C/c1ccccc1)C(=O)Nc1ccc(C(N)=O)cc1 (stereo unspecified)	inconclusive: 0.411 µM [cytotoxic, full curve, poor fit]	
O=[N+]([O-])c1cccc(S(=O)(=O)Nc2ccc(S(=O)(=O)NCC3CCCO3)cc2)c1 (stereo unspecified)	inconclusive: 18.4 µM [rising, single point]	
OCCN1CCN(c2cc(-c3ccc4ccccc4c3)nc3ccnn23)CC1		inactive: 2.42%
CCOc1cccc(C(=O)NC(=S)Nc2cccnc2)c1	inconclusive: 16.4 µM [cytotoxic, single point]	
COc1cc(NC(C)CCCN)c2ncccc2c1 (stereo unspecified)		inactive: -18.7%

SMILES	Potency	activity change, negative = cytotoxicity
CC(C)NC(=O)C1(C)CCN1C(=O)C(c1ccccc1)c1ccccc1 (stereo unspecified)		inactive: -0.326%
O=C(NC(=S)Nc1ccc(Cc2ccncc2)cc1)c1ccccc1F	inconclusive: 23.1 µM [cytotoxic, single point]	
CCOC(=O)c1c(N)n(-c2cc(C)cc(C)c2)c2nc3ccccc3nc12	inconclusive: 29.1 µM [rising, single point]	
O=C(CCc1nc(-c2ccccc2)no1)Nc1cc(C(F)(F)F)ccc1Cl		inactive: -0.728%
C=CCNC(=S)Nc1ccc(C(N)=O)cc1	inconclusive: 29.1 µM [rising, single point]	
O=C(COC(=O)CNC(=O)C1CCCCC1)Nc1ccccc1Cl	inconclusive: 13 µM [cytotoxic, single point]	
C=CCn1cnc2c(nnn2-c2cc(C)cc(C)c2)c1=O	inconclusive: 29.1 µM [cytotoxic, single point]	
O=C1CC(=O)Nc2cc(S(=O)(=O)N3CCN(c4cccc(C(F)(F)F)c4)CC3)ccc2N1	inconclusive: 25.9 µM [rising, partial curve, poor fit]	
Cc1ccc(F)cc1NC(=O)N1CCCN(c2ccc(C(F)(F)F)cn2)CC1	active: 20.6 µM	
CC1CN(C(=O)c2ccccc2C(=O)c2ncc[nH]2)CC(C)O1 (stereo unspecified)		inactive: 13.4%
COc1cc(OC)nc(Oc2cccc(C(F)(F)F)c2)n1	inconclusive: 29.1 µM [rising, single point]	
CCN(CC)C(=O)c1[nH]cnc1C(=O)N[C@@H](CCCCNC(=O)OC(C)(C)C)C(=O)OC(C)(C)C	inconclusive: 0.0366 µM [rising, full curve]	
COCCn1c(C)cc(O)c(C(c2ccc(OC)cc2)N2CCN(c3ccccc3)CC2)c1=O (stereo unspecified)		inactive: 2.19%
CCSc1ccc2nnc(-c3cccs3)n2n1	inconclusive: 16.4 µM [cytotoxic, partial curve, poor fit]	
COC(=O)Nc1ccc(Oc2ccccc2)cc1	inconclusive: 20.6 µM [cytotoxic, single point]	
Cc1ccc(-c2ccc(CCC(=O)O)n2-c2cccc(C)c2C)cc1	inconclusive: 29.1 µM [rising, single point]	
COc1cccc(CNC(=O)CN2C(=O)CCSc3ccc(S(=O)(=O)N4CCCC4)cc32)c1		inactive: 0.277%
Cc1cc(C)c2c(CC(=O)NN(C)C)coc2c1	inconclusive: 23.1 µM [rising, partial curve]	
CCc1c(C)sc(NC(=O)OC)c1C(N)=O		inactive: -0.864%
CC(C)(C)SCCNC(=O)CN(c1ccc(F)cc1)S(=O)(=O)c1ccccc1		inactive: -17.4%
Cc1ccc(C(=O)N2CCCN(c3nc4cc5c(cc4cc3C#N)OCO5)CC2)cc1	active: 23.1 µM	
CC1CCN(C(=O)CCCC(=O)O)CC1	inconclusive: 6.51 µM [rising, partial curve, poor fit]	
N/C(=N\OC(=O)CCCOc1ccccc1)c1ccc(Br)cc1	inconclusive: 11.6 µM [rising, partial curve, poor fit]	
COc1ccc(NC2CCCN(C(=O)CN3CCOC3=O)C2)cc1 (stereo unspecified)		inactive: 0%
C=C1C[C@H](O)[C@@H]2[C@H](OC(=O)[C@H]2C)[C@H]2[C@H](C)[C@@H](O)C[C@@H]12	inconclusive: 23.1 µM [rising, single point]	

Some of the entries so far, with bars between the fields.
SMILES | Potency | activity change, negative = cytotoxicity
COc1cccc(NC(=O)C(NCCC(C)C)c2ccccc2)c1 (stereo unspecified) |  | inactive: 11.3%
Cc1c(Cl)c([N+](=O)[O-])nn1CCCC(=O)Nc1c(Cl)cccc1Cl | active: 7.31 µM | 
Cc1ccc(NC(=O)c2ccc(Nc3c([N+](=O)[O-])cc([N+](=O)[O-])cc3[N+](=O)[O-])cc2)cc1 | inconclusive: 20.6 µM [cytotoxic, single point] | 
OCCN1CCN(c2cc(-c3ccc4ccccc4c3)nc3ccnn23)CC1 |  | inactive: 2.42%
COc1cc(NC(C)CCCN)c2ncccc2c1 (stereo unspecified) |  | inactive: -18.7%
CC(C)NC(=O)C1(C)CCN1C(=O)C(c1ccccc1)c1ccccc1 (stereo unspecified) |  | inactive: -0.326%
O=C(CCc1nc(-c2ccccc2)no1)Nc1cc(C(F)(F)F)ccc1Cl |  | inactive: -0.728%
COc1cc(OC)nc(Oc2cccc(C(F)(F)F)c2)n1 | inconclusive: 29.1 µM [rising, single point] | 
CCN(CC)C(=O)c1[nH]cnc1C(=O)N[C@@H](CCCCNC(=O)OC(C)(C)C)C(=O)OC(C)(C)C | inconclusive: 0.0366 µM [rising, full curve] | 
CCSc1ccc2nnc(-c3cccs3)n2n1 | inconclusive: 16.4 µM [cytotoxic, partial curve, poor fit] | 
C=C1C[C@H](O)[C@@H]2[C@H](OC(=O)[C@H]2C)[C@H]2[C@H](C)[C@@H](O)C[C@@H]12 | inconclusive: 23.1 µM [rising, single point] | 
